Some of the results follow.
Legend:
Experiment in all cases: log2 fold change, soluble protein after heating vs DMSO (PISA); higher = thermal stabilisation; K562 lysate, 10 uM; active = over 0.2 and 3.5 SD of the protein, either way, in both replicates (recomputed)
[1] = compound: CCCS(=O)(=O)Nc1ccc(F)c(C(=O)c2c[nH]c3ncc(Cl)cc23)c1F
Summary of the method: (§1)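 To prepare the extract, K562 pellets were dounce-homogenised in PBS pH 7.4 with 1 mM MgCl2, giving crude material at 1 mg/mL protein. This was treated with 10 μM compound for 30 min, then heated in aliquots for 3 min over 48°C-58°C before pooling and addition of NP-40 to 0.5% at 4°C. Centrifugation at 21,000xg for 90 min left soluble protein in the supernatant, which TMTpro 16plex LC-MS/MS quantified with equalised channel sums. Results are log-two fold changes in thermal stability compared with solvent controls, from duplicates.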

Protein sequences, listed by entry. Tags and fused reporters are not part of them. Lines headed by an entry give the natural chain unless they say otherwise; changes in a name come on top.
UniProt Q5K651: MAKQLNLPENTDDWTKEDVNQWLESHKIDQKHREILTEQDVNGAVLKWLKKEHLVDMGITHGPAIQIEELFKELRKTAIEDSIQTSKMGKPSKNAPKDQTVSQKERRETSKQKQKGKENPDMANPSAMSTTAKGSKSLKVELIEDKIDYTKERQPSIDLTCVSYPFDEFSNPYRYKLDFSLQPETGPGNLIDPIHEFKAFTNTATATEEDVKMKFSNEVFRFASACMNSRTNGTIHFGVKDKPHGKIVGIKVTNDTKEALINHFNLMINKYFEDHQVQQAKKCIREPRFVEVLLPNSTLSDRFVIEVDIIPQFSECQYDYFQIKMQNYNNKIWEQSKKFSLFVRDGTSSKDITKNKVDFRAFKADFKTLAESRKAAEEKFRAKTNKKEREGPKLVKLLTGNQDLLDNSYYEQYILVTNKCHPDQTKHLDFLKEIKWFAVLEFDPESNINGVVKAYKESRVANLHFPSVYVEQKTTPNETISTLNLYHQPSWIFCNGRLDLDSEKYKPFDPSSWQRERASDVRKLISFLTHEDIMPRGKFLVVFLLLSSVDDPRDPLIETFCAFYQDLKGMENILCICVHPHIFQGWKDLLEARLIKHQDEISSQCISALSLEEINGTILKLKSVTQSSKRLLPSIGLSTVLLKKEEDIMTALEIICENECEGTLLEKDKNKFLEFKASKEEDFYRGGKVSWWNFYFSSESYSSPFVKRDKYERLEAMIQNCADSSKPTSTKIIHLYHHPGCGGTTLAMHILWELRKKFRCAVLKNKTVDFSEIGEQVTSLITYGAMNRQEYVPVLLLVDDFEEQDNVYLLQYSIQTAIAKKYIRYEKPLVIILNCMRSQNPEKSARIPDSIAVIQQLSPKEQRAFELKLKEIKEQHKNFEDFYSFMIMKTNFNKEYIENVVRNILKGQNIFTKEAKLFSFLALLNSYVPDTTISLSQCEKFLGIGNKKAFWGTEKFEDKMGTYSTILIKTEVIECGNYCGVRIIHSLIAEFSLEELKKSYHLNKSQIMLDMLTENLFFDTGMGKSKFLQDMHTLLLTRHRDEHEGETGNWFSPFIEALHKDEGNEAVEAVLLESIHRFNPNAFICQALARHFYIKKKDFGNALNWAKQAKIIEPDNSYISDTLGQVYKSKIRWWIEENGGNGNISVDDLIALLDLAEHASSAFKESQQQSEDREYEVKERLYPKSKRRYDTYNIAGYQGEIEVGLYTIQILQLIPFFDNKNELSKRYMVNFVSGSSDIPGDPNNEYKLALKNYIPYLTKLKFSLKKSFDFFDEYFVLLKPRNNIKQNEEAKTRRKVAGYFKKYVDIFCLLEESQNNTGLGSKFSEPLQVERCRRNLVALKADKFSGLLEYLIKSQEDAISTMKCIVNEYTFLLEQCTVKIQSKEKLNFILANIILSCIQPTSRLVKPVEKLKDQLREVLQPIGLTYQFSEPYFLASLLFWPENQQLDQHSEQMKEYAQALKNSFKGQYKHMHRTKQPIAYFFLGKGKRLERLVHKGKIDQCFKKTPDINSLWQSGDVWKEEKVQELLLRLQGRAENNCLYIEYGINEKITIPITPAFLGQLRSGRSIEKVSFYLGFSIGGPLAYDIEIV
UniProt Q99470: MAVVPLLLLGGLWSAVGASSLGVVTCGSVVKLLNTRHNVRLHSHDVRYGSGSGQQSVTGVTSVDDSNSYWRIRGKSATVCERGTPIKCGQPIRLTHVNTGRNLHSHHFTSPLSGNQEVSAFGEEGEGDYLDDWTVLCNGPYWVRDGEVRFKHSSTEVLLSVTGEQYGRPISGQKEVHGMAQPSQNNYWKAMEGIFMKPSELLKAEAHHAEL
UniProt Q9BVL4, whole entry, looked up: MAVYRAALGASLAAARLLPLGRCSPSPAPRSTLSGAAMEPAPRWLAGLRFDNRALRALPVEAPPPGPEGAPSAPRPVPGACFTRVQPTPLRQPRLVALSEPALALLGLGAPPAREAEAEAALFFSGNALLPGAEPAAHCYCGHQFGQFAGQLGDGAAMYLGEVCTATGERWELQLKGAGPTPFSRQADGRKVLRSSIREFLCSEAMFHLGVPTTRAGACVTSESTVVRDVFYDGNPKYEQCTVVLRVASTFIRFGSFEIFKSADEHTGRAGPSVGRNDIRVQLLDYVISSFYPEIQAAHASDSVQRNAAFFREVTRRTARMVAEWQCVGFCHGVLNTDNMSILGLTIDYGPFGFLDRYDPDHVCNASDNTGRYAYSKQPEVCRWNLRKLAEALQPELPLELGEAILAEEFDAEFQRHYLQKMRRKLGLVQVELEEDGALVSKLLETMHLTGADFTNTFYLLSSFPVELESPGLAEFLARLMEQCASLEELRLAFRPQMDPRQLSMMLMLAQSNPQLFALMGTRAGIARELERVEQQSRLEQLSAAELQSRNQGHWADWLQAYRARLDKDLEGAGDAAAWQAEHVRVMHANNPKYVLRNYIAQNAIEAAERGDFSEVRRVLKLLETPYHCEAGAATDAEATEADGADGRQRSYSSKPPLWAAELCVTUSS
UniProt Q96IW7: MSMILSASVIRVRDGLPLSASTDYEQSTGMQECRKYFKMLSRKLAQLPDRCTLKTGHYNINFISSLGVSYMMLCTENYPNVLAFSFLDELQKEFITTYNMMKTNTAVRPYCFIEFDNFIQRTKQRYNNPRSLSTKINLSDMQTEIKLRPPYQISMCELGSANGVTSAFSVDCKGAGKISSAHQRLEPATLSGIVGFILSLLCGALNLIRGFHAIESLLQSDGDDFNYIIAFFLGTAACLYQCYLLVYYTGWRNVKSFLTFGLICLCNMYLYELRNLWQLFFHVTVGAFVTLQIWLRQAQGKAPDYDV
UniProt Q8WWX9, whole entry, looked up: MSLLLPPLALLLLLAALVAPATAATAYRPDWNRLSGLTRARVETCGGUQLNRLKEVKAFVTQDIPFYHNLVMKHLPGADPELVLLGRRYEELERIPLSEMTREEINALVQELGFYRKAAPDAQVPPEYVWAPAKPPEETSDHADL
UniProt O75845: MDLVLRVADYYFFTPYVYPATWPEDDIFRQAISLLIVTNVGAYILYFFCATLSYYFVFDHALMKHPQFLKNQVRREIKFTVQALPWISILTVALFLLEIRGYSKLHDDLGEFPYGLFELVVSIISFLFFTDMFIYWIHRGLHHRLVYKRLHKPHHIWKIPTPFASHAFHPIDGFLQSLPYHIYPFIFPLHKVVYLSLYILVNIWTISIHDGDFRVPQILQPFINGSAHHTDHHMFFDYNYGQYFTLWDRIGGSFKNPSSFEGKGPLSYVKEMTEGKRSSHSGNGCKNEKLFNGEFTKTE
UniProt O15027: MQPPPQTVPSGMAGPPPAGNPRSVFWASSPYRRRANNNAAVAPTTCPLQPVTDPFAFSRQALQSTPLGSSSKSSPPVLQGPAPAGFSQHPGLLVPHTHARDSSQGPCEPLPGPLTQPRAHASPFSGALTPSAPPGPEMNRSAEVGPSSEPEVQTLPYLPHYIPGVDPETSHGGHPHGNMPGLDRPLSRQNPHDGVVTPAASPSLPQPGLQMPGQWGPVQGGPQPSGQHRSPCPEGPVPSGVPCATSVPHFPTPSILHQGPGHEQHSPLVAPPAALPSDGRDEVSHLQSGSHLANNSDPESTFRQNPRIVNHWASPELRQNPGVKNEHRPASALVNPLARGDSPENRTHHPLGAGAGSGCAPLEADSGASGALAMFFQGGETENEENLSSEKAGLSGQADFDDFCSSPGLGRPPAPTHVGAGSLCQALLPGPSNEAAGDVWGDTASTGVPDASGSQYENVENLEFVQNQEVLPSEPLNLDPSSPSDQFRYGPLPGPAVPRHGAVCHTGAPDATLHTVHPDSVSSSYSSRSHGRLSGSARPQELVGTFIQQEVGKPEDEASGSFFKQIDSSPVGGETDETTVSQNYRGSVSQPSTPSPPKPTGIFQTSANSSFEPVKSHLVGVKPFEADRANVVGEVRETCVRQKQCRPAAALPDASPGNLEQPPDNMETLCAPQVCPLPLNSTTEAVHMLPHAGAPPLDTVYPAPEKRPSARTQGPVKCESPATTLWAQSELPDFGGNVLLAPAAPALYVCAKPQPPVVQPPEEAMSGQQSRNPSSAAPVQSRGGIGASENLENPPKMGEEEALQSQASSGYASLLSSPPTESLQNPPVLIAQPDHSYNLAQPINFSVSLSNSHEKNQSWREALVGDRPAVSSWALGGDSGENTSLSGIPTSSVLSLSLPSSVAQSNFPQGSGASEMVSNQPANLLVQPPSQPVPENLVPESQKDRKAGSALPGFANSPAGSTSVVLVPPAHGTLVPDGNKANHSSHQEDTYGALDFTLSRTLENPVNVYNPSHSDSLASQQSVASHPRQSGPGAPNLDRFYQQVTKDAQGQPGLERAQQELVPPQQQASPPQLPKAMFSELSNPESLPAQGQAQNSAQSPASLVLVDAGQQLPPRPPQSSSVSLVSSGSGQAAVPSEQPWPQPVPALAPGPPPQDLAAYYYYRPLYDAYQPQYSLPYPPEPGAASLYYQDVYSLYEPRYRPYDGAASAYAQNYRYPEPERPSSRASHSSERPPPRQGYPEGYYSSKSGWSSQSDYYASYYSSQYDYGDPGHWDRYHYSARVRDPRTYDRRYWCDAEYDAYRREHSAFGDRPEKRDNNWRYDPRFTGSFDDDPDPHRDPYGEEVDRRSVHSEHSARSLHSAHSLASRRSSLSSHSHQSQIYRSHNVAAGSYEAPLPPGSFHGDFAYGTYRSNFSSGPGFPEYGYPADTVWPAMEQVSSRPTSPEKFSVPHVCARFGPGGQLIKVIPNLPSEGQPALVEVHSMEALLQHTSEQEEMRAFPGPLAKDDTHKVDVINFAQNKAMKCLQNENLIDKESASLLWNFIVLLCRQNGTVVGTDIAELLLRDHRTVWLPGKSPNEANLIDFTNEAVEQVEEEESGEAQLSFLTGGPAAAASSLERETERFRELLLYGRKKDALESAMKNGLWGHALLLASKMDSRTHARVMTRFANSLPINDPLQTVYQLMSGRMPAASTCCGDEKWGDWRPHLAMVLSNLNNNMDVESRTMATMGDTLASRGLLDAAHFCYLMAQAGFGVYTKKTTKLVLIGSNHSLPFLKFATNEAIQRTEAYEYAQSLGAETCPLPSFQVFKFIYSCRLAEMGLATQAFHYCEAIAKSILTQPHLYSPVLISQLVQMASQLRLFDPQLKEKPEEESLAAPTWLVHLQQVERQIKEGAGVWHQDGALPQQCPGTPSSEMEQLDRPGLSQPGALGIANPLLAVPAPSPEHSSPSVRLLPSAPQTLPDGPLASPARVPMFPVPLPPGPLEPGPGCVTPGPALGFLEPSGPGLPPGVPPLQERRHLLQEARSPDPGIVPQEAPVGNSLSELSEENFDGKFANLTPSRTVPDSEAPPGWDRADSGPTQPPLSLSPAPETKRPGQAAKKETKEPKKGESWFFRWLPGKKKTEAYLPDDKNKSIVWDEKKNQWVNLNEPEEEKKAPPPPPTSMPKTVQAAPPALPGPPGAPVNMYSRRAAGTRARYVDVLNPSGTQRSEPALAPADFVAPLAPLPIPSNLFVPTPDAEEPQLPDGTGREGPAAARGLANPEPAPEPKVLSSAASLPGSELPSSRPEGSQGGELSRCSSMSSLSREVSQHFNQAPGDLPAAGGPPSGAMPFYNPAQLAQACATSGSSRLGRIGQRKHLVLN
UniProt Q9HAJ7: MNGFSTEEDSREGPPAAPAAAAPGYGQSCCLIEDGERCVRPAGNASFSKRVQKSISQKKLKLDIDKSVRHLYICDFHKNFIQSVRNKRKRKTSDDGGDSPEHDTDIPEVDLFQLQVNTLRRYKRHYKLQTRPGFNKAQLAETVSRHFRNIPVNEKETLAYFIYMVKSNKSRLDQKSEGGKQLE
UniProt O75556: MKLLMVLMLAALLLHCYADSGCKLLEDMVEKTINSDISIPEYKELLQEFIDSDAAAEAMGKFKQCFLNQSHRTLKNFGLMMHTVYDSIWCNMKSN

[2] = compound: CC[C@@H]1C(=O)N(C)c2cnc(Nc3ccc(C(=O)NC4CCN(C)CC4)cc3OC)nc2N1C1CCCC1
Summary of the method: as §1

volasertib = compound: CC[C@@H]1C(=O)N(C)c2cnc(Nc3ccc(C(=O)N[C@H]4CC[C@H](N5CCN(CC6CC6)CC5)CC4)cc3OC)nc2N1C(C)C [volasertib]
Summary of the method: as §1

[3] = compound: CCn1c(C(=O)N(C2CC2)C2CC2)cc2c3c(ncn3C)c(Nc3cc(C)n(C)n3)nc21
Summary of the method: as §1

[4] = compound: CCn1cc(-c2ccnc3[nH]c(-c4cccc(CN(C)C)c4)cc23)c(-c2ccc(NC(=O)N(C)C)cc2)n1
Summary of the method: as §1

[5] = compound: CN1CCC(CNc2ccc3ncc(-c4cccc(OC(F)(F)F)c4)n3n2)CC1
Summary of the method: as §1

sotrastaurin = compound: CN1CCN(c2nc(C3=C(c4c[nH]c5ccccc45)C(=O)NC3=O)c3ccccc3n2)CC1 [sotrastaurin]
Summary of the method: as §1

barasertib = compound: CCN(CCCOc1ccc2c(Nc3cc(CC(=O)Nc4cccc(F)c4)[nH]n3)ncnc2c1)CCOP(=O)(O)O [barasertib]
Summary of the method: as §1

saracatinib = compound: CN1CCN(CCOc2cc(OC3CCOCC3)c3c(Nc4c(Cl)ccc5c4OCO5)ncnc3c2)CC1 [saracatinib]
Summary of the method: as §1

Measured: log2 fold change

SAMD9 (UniProt Q5K651)
inactive: [1] -0.026 | [2] 0.169 | volasertib -0.095 | [3] 0.084 | [4] -0.206 | [5] 0.069 | sotrastaurin -0.044

SDF2 (UniProt Q99470)
inactive: [1] 0.067 | barasertib -0.305 | volasertib -0.057 | sotrastaurin 0.003

SELENOO (UniProt Q9BVL4)
inactive: [1] 0.006 | volasertib 0.042 | [3] 0.122 | [4] 0.146 | [5] 0.113 | saracatinib 0.14

SEPTIN8 (UniProt F8W8I8)
inactive: [1] -0.019 | volasertib -0.033 | [3] -0.076 | [4] -0.291 | [5] 0.158 | saracatinib 0.022

SEC22A (UniProt Q96IW7)
inactive: [1] 0.022 | barasertib 0.133 | volasertib -0.048 | [3] 0.033 | sotrastaurin 0.078

2 neighbouring records from above, quoted:
SAMD9 (UniProt Q5K651)
inactive: [1] -0.026 | [2] 0.169 | volasertib -0.095 | [3] 0.084 | [4] -0.206 | [5] 0.069 | sotrastaurin -0.044

SDF2 (UniProt Q99470)
inactive: [1] 0.067 | barasertib -0.305 | volasertib -0.057 | sotrastaurin 0.003

(next part)

SELENOM (UniProt Q8WWX9)
inactive: [1] -0.122 | volasertib 0.039 | [3] -0.081 | sotrastaurin 0.02

SC5D (UniProt O75845)
inactive: [1] 0.033 | [2] 0.056 | volasertib 0.008 | [4] -0.061 | [5] 0.079 | sotrastaurin 0.061

SEC16A isoform 2 (UniProt O15027)
inactive: [3] -0.204

SAP30L (UniProt Q9HAJ7)
inactive: [3] 0.068 | sotrastaurin 0.021

SCGB2A1 (UniProt O75556)
inactive: [1] 0.057 | volasertib -0.269 | [4] 0.791 | [5] -0.26
